From US9983196B2, “Compositions and methods for optimizing drug hydrophobicity and drug delivery to cells” (Bioelastics, Inc., priority 2009, dated 2018)
At least one structure is not confirmed: it was looked up by name or label, or the drawing left a doubt.

Assay: differential scanning calorimetry of the inverse temperature transition: ΔGHA-based hydrophobicity scale
Type: physicochemical
Settings: oxidized to reduced state, from Table 2
Text: Described herein is a hydrophobicity scale based on the change in Gibbs free energy of hydrophobic association. Increase in entropy of water drives endothermic phase transition of hydrophobic association. For a narrow phase transition the chemical potential, t, of the molecules in the phase separated, hydrophobically associated state, 1.IHA, and the solution, hydrophobically dissociated state, 1.1HD, are equal. Therefore, at constant temperature and pressure, i.e., at equilibrium, the change in Gibbs free energy for the phase transition is zero, (ΔGt)TP=0 and ΔHT=TtΔSt. […]
Given the above approximation, but also recognizing that ASt is a calculated result from the differential scanning calorimetric measurement of ΔHt, we define the change in Gibbs free energy for hydrophobic association, ΔGHA, as,
The differential scanning calorimetry (DSC) data of ΔHt(GVGVP) (SEQ ID NO:4) and ΔHt(GVGIP) (SEQ ID NO:8) in FIG. 1 of Luan and Urry, J Phys Chem 95:7896-7900, 1991 provide a specific example of the difference that defines ΔGHA. […] This is the same value of 1.5 kcal/mol-CH2 for the addition of a single CH2 as determined by Butler for the alcohol series. […]
In this case most of the ΔG^oHA values have been obtained by taking the experimental Tt, suitably extrapolated to fx=1 to obtain Tt, and reading the value of ΔG^oHA from the sigmoid curve of FIG. 13. […]

NC(=O)c1ccc[n+]([C@@H]2O[C@H](COP(=O)([O-])OP(=O)(O)OC[C@H]3O[C@@H](n4cnc5c(N)ncnc54)[C@H](O)[C@@H]3O)[C@@H](O)[C@H]2O)c1 [Glu(NAD)]
change in ΔGHA on reduction: -7.5 kcal/mol
